The other results are listed elsewhere or left out.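 How the source made its calls: active = dose-dependent thermal stabilisation significant by F-test of dose-response against flat model at 10% FDR; inactive = not significant.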
compound: Nc1nc2c(ncn2[C@@H]2O[C@H](COP(=O)(O)OP(=O)(O)OP(=O)(O)O)[C@@H](O)[C@H]2O)c(=O)[nH]1; assay: dose-dependent thermal stabilisation call (2D-TPP, DLPTP, 10% FDR) (binary (1 = stabilised)); higher = stabilised by the compound; conditions: system: Jurkat gel-filtered lysate; concentration range 1-500 µM

Chains of the proteins cited; added tags and fusions are not shown. Lines headed by an entry give the natural chain unless they say otherwise; changes in a name come on top.
UniProt Q9H078: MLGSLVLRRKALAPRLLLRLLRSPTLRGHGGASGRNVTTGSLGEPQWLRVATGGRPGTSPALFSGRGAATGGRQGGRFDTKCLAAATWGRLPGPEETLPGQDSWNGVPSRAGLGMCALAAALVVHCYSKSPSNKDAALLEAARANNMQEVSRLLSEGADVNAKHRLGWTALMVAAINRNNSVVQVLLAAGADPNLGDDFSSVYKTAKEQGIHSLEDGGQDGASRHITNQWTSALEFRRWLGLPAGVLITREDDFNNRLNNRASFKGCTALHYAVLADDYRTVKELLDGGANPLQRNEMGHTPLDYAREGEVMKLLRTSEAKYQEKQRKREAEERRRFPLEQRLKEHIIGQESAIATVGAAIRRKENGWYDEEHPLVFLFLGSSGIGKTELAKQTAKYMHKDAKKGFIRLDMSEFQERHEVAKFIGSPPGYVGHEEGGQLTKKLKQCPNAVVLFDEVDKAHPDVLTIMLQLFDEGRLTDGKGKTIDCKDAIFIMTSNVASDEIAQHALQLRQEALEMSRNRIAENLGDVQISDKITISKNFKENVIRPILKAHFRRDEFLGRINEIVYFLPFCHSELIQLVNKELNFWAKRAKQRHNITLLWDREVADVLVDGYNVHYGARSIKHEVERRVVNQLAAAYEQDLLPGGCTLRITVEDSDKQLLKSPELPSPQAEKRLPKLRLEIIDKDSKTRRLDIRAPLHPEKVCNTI
UniProt Q6PII3: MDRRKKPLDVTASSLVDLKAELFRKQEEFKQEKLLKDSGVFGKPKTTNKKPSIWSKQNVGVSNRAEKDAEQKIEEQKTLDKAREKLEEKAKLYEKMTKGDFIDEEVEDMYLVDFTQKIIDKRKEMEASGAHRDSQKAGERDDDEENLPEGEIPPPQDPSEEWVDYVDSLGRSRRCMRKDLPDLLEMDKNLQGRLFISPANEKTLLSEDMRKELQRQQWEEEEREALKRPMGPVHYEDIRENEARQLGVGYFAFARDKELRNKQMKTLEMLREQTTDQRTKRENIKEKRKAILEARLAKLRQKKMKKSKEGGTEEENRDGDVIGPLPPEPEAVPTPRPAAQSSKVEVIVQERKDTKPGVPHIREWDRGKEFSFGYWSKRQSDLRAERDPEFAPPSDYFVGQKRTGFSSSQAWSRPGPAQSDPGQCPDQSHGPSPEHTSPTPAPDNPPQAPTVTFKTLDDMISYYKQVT
UniProt P50991: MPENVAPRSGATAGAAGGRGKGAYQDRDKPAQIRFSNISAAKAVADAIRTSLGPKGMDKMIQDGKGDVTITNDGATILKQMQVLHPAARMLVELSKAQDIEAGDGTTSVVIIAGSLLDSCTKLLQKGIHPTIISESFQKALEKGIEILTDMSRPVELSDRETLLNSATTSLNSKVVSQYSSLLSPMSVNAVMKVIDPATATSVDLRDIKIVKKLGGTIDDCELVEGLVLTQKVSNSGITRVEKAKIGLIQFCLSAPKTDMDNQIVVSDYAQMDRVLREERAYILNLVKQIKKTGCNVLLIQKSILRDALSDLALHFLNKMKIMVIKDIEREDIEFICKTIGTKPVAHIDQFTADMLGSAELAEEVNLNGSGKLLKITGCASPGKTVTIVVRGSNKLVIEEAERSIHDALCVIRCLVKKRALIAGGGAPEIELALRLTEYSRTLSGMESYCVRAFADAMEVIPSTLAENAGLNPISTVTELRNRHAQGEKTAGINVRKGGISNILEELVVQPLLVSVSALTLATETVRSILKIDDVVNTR
UniProt Q9BRF8, whole entry: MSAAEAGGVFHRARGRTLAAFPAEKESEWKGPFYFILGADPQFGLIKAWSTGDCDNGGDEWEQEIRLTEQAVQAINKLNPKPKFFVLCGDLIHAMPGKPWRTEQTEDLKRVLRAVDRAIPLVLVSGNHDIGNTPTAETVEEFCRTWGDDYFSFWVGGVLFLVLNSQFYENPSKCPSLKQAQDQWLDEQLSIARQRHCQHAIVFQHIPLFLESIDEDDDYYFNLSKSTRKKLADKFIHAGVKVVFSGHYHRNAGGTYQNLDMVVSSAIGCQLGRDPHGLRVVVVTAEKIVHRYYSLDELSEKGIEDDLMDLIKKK
UniProt Q8IWD4: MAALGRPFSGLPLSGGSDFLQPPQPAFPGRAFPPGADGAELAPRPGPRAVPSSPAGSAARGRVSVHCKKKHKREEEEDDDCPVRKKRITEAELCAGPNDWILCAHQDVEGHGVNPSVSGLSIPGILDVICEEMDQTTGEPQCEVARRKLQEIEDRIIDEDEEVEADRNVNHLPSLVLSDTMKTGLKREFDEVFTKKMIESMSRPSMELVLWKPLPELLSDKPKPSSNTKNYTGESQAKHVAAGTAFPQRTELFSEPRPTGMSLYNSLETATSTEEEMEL
UniProt Q8IWX8: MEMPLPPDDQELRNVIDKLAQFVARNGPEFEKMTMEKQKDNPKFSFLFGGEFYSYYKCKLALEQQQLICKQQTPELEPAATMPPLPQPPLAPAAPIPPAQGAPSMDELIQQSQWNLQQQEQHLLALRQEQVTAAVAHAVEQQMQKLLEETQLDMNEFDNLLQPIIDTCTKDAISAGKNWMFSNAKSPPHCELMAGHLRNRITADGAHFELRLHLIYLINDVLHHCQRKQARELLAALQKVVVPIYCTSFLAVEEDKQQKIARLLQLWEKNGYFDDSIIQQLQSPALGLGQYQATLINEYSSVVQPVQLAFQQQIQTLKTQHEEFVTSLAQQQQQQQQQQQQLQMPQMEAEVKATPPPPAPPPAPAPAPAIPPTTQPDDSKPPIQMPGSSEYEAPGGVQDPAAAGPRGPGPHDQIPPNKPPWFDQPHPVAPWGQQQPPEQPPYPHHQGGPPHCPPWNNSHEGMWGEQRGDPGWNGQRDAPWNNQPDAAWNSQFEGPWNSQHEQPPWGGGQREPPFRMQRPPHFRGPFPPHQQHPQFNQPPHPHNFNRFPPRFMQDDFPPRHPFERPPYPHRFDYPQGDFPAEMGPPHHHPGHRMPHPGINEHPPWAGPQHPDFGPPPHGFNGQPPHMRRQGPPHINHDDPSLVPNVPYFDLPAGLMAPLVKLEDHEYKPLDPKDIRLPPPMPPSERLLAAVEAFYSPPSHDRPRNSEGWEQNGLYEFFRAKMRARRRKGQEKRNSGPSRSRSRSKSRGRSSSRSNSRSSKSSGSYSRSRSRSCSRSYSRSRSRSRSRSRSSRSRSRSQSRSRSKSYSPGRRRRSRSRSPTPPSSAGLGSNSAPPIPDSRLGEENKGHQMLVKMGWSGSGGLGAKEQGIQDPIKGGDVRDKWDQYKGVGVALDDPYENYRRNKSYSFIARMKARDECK
UniProt Q8N4Q1: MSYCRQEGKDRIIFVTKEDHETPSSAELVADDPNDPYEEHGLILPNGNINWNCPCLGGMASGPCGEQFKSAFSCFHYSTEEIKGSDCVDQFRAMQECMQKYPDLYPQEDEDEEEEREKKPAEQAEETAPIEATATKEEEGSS
UniProt P23528, whole entry: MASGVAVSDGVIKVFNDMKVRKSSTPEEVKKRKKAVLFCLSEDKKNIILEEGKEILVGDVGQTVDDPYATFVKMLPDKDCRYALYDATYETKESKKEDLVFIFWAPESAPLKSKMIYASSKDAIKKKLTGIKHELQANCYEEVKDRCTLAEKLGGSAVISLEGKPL
UniProt P36551: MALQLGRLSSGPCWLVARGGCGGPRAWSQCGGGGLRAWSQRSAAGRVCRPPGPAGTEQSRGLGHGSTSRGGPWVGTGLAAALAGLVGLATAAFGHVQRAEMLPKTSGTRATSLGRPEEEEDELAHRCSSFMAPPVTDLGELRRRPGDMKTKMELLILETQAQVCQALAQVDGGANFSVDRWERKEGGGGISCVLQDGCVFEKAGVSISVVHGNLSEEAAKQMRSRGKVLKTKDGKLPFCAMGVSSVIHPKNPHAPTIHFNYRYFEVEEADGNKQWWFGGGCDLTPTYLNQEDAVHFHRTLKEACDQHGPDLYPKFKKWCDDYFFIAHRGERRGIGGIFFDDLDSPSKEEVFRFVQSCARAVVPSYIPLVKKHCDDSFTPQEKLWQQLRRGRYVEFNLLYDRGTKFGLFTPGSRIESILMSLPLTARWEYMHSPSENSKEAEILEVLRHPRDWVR
UniProt Q9H6F5: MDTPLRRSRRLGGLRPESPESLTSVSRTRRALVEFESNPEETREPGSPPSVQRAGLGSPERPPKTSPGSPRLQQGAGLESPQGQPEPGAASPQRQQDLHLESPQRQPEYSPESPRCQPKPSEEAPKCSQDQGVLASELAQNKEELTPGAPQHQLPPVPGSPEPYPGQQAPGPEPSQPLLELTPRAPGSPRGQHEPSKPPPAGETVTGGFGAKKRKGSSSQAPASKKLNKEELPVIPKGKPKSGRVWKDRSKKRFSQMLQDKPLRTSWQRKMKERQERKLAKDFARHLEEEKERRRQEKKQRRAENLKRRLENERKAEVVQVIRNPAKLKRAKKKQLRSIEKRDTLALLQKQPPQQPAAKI
UniProt O75419: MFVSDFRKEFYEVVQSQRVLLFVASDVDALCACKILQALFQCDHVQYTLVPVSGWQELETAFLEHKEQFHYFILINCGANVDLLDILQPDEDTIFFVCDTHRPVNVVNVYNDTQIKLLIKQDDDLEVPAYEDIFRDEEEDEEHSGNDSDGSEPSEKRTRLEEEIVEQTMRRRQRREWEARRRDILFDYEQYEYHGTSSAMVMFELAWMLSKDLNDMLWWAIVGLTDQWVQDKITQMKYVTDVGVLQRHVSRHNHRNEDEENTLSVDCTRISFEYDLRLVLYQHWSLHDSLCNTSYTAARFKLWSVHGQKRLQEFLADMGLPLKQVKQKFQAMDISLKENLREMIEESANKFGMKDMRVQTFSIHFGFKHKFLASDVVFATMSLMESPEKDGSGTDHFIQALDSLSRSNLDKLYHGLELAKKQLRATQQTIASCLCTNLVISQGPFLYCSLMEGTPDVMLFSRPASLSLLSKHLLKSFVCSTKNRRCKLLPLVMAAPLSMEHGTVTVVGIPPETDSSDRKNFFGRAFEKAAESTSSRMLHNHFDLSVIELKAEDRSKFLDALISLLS
UniProt Q99459: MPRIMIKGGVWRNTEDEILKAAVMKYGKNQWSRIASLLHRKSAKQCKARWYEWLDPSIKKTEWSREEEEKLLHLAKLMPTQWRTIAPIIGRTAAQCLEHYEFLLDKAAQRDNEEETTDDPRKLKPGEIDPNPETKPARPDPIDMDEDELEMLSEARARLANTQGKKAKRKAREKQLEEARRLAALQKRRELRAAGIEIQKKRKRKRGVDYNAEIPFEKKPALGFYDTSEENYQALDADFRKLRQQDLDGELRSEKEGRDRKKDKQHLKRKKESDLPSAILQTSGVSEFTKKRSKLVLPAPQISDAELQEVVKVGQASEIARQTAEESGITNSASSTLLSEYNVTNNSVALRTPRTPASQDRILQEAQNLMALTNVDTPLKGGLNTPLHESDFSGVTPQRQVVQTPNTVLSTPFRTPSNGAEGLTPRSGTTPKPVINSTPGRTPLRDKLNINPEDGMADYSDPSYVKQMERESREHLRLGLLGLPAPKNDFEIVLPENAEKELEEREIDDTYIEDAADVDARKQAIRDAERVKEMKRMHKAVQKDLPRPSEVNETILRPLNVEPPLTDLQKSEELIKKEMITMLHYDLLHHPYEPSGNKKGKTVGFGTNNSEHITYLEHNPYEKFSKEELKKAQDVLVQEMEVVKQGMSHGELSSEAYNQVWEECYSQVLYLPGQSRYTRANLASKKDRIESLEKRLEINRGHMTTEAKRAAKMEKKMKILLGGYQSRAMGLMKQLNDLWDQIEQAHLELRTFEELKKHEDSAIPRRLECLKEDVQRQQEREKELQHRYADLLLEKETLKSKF
UniProt Q8IW35: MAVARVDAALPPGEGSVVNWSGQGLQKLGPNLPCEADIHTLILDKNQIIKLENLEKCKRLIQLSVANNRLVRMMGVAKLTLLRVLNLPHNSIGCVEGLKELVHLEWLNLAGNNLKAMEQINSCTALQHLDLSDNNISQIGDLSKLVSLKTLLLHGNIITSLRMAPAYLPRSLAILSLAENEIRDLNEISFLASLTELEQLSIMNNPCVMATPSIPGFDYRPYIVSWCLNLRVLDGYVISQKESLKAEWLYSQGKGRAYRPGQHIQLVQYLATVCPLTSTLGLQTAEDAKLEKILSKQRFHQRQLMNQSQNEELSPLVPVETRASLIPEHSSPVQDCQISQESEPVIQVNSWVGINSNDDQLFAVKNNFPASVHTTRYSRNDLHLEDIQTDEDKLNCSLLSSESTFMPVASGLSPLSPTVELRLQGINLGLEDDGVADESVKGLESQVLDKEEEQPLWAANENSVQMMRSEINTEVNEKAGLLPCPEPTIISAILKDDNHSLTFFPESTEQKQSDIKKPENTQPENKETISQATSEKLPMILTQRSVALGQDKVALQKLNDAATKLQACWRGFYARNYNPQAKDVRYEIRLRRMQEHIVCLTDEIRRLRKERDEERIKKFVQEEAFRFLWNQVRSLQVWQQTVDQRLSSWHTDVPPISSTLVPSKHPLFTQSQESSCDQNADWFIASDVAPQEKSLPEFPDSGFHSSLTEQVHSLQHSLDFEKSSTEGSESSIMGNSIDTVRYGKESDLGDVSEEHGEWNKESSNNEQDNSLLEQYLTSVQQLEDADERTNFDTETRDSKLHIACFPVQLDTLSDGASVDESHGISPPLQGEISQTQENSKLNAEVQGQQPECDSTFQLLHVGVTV

| Target | dose-dependent thermal stabilisation call |
| --- | --- |
| CDK5 (UniProt Q00535) | active: 1 |
| CNOT9 (UniProt Q92600) | inactive: 0 |
| CLPB (UniProt Q9H078) | active: 1 |
| CEP192 (UniProt Q8TEP8) | inactive: 0 |
| COMMD6 (UniProt Q7Z4G1) | inactive: 0 |
| CCP110 (UniProt O43303) | inactive: 0 |
| CCDC174 (UniProt Q6PII3) | inactive: 0 |
| CMC1 (UniProt Q7Z7K0) | inactive: 0 |
| CCDC9 (UniProt Q9Y3X0) | inactive: 0 |
| CLP1 (UniProt Q92989) | inactive: 0 |
| COG6 (UniProt Q9Y2V7) | inactive: 0 |
| CDK4 (UniProt P11802) | inactive: 0 |
| CORO1B (UniProt Q9BR76) | inactive: 0 |
| CCT4 (UniProt P50991) | inactive: 0 |
| CCDC92 (UniProt Q53HC0) | active: 1 |
| CPPED1 (UniProt Q9BRF8) | inactive: 0 |
| CDK13 (UniProt Q14004) | inactive: 0 |
| CBS (UniProt P35520) | inactive: 0 |

In another format: results already given
Target	dose-dependent thermal stabilisation call
CNOT9 (UniProt Q92600)	inactive: 0
COMMD6 (UniProt Q7Z4G1)	inactive: 0
COG6 (UniProt Q9Y2V7)	inactive: 0

(cont.)

| Target | dose-dependent thermal stabilisation call |
| --- | --- |
| CCDC117 (UniProt Q8IWD4) | active: 1 |
| CARS2 (UniProt Q9HA77) | inactive: 0 |
| CDC40 (UniProt O60508) | inactive: 0 |
| CHID1 (UniProt Q9BWS9) | inactive: 0 |
| CHERP (UniProt Q8IWX8) | inactive: 0 |
| CAT (UniProt P04040) | inactive: 0 |
| CHCHD4 (UniProt Q8N4Q1) | inactive: 0 |
| CDC37L1 (UniProt Q7L3B6) | inactive: 0 |
| CDC73 (UniProt Q6P1J9) | inactive: 0 |
| CFL1 (UniProt P23528) | inactive: 0 |
| CPOX (UniProt P36551) | inactive: 0 |
| CCM2 (UniProt Q9BSQ5) | inactive: 0 |
| CD2AP (UniProt Q9Y5K6) | inactive: 0 |
| CCDC86 (UniProt Q9H6F5) | inactive: 0 |
| CDC45 (UniProt O75419) | inactive: 0 |
| CDC5L (UniProt Q99459) | inactive: 0 |
| CDK5RAP2 (UniProt Q96SN8) | inactive: 0 |
| CEP97 (UniProt Q8IW35) | inactive: 0 |

Source: the supplement of paper PMC7666118
